# Literature values as cited in patent US7507749B2, “Antitumor agents” (priority 2001, dated 2009).
# Some entries share one result that the patent states for a list of compounds.
# Test system: B16 melanoma
# Conditions: historic, B16 melanoma implanted subcutaneously (SC); cited from earlier work
structure (smiles),measurement,value
CC[C@]1(O)C[C@@H]2CN(CCc3c([nH]c4ccccc34)[C@@](C(=O)OC)(c3cc4c(cc3OC)N(C)[C@H]3[C@@](O)(C(=O)OC)[C@H](OC(C)=O)[C@]5(CC)C=CCN6CC[C@]43[C@@H]65)C2)C1 [vinblastine],activity rating (responsiveness of the tumor to standard agents),− (<0.7)
